# Source: the supplement of paper PMC6411743
# ± gives the standard deviation of the averaged measurements. This is a selection; strong and weak results do not stand in their true shares.
# Legend:
# Assay in all cases: NP40-soluble protein abundance relative to vehicle (solubility fold change) (ratio); higher = more soluble protein in presence of AMP-PNP
# CAMLG = target: T1, CAMLG (UniProt P49069)
# T1 sequence (whole entry): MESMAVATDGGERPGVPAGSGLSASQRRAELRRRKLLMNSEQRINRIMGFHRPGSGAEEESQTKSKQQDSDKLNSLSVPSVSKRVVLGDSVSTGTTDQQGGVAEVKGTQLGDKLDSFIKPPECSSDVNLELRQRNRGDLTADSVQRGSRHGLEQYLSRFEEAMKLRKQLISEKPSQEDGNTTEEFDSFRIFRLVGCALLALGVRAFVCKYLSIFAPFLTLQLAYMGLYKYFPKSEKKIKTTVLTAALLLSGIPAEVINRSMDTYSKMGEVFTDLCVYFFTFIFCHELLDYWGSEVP
# Outline: (§1)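 Eight concentrations, 0.1 to 10 mM, were tested on Jurkat crude lysate for 10 min at room temperature and then 3 min at 37 °C, in three independent experiments. The lysate was solubilised with 0.8% NP40 and benzonase, ultracentrifuged, and the supernatant TMT-labelled for LC-MS/MS. Each value is the fold change against the detergent-processed vehicle in its own replicate, from vsn-normalised intensities.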
# HADHB = target: T2, HADHB (UniProt P55084)
# T2 sequence (whole entry): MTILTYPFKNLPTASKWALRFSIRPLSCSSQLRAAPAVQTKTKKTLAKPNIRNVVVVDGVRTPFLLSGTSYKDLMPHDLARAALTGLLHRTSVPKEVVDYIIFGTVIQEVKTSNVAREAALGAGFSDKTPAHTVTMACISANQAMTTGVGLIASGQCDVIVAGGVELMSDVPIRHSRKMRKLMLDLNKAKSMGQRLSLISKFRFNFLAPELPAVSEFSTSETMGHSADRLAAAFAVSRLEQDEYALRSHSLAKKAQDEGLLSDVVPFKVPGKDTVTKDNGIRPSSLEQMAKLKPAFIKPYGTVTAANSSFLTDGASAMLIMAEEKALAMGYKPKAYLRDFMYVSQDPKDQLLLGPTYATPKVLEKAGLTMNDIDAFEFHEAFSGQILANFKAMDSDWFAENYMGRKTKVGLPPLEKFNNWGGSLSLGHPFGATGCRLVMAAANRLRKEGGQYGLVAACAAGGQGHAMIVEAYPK
# Outline: as §1
# HNRNPF = target: T3, HNRNPF (UniProt P52597)
# T3 sequence (whole entry): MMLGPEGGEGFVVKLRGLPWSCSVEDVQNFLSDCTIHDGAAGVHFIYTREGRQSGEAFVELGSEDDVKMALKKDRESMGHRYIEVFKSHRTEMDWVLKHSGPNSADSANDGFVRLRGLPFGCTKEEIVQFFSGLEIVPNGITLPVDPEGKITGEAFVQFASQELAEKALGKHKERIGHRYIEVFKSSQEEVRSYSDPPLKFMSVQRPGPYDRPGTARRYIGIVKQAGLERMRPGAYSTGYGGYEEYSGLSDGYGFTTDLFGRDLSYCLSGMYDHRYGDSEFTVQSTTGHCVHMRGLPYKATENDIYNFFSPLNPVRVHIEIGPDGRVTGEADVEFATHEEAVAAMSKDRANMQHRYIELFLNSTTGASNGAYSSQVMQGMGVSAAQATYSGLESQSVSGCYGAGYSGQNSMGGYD
# Outline: as §1
# MDH2 = target: T4, MDH2 (UniProt P40926)
# T4 sequence (whole entry): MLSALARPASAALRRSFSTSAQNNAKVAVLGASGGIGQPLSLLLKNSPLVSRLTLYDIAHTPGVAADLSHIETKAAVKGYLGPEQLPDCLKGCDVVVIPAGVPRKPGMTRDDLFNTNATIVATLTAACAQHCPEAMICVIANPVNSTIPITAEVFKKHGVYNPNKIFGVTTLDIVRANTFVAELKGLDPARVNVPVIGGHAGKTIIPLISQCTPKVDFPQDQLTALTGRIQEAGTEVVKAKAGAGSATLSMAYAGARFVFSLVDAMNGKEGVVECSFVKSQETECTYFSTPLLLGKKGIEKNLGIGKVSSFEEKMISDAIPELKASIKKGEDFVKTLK
# Outline: as §1
# PIP4K2A = target: T5, PIP4K2A (UniProt P48426)
# T5 sequence (whole entry): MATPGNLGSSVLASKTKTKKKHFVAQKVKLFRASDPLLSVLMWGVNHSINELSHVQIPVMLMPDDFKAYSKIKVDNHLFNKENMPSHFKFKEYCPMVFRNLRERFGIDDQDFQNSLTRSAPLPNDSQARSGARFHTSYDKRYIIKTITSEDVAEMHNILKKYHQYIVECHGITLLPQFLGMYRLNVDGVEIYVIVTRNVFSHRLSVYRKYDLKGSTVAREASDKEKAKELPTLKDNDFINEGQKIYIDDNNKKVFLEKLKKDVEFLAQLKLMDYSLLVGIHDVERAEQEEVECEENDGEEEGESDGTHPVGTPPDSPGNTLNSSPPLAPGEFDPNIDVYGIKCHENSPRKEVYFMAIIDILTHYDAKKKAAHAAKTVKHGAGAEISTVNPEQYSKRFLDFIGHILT
# Outline: as §1
# PPM1F = target: T6, PPM1F (UniProt P49593); details: concentration: 1mM
# T6 sequence (whole entry): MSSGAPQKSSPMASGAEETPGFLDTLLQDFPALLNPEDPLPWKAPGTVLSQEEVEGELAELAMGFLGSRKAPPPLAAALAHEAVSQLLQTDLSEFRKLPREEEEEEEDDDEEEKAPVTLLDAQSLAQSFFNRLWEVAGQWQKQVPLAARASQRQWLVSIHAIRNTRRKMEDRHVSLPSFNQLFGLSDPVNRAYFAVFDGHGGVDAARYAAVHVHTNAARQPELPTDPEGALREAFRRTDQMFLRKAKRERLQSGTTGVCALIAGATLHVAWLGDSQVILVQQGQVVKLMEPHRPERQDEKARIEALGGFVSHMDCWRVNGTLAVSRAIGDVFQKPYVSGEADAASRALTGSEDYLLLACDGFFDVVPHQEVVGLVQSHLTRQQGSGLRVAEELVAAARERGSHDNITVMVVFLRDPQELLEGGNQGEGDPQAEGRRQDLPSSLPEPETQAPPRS
# Outline: as §1
structure (smiles),measurement,setting,value
Nc1ncnc2c1ncn2[C@@H]1O[C@H](COP(=O)(O)OP(=O)(O)NP(=O)(O)O)[C@@H](O)[C@H]1O [adenylyl imidodiphosphate],NP40-soluble protein abundance,CAMLG; concentration: 1mM,1.01 ± 0.024
same,NP40-soluble protein abundance,CAMLG; concentration: 2mM,1.06 ± 0.064
same,NP40-soluble protein abundance,CAMLG; concentration: 4mM,1.01 ± 0.048
same,NP40-soluble protein abundance,CAMLG; concentration: 6mM,0.994 ± 0.021
same,NP40-soluble protein abundance,CAMLG; concentration: 8mM,0.9695 ± 0.0082
same,NP40-soluble protein abundance,CAMLG; concentration: 10mM,1.01 ± 0.025
same,NP40-soluble protein abundance,HADHB; concentration: 1mM,0.9728 ± 0.0092
same,NP40-soluble protein abundance,HADHB; concentration: 2mM,0.923 ± 0.055
same,NP40-soluble protein abundance,HADHB; concentration: 4mM,0.965 ± 0.024
same,NP40-soluble protein abundance,HADHB; concentration: 6mM,0.969 ± 0.029
same,NP40-soluble protein abundance,HADHB; concentration: 8mM,0.976 ± 0.035
same,NP40-soluble protein abundance,HADHB; concentration: 10mM,0.984 ± 0.045
same,NP40-soluble protein abundance,HNRNPF; concentration: 1mM,0.967 ± 0.036
same,NP40-soluble protein abundance,HNRNPF; concentration: 2mM,0.913 ± 0.062
same,NP40-soluble protein abundance,HNRNPF; concentration: 4mM,0.939 ± 0.02
same,NP40-soluble protein abundance,HNRNPF; concentration: 6mM,0.973 ± 0.019
same,NP40-soluble protein abundance,HNRNPF; concentration: 8mM,0.965 ± 0.027
same,NP40-soluble protein abundance,HNRNPF; concentration: 10mM,0.921 ± 0.029
same,NP40-soluble protein abundance,MDH2; concentration: 1mM,0.981 ± 0.064
same,NP40-soluble protein abundance,MDH2; concentration: 2mM,0.98 ± 0.065
same,NP40-soluble protein abundance,MDH2; concentration: 4mM,0.96 ± 0.045
same,NP40-soluble protein abundance,MDH2; concentration: 6mM,1 ± 0.038
same,NP40-soluble protein abundance,MDH2; concentration: 8mM,0.992 ± 0.014
same,NP40-soluble protein abundance,MDH2; concentration: 10mM,1.01 ± 0.022
same,NP40-soluble protein abundance,PIP4K2A; concentration: 1mM,0.952 ± 0.037
same,NP40-soluble protein abundance,PIP4K2A; concentration: 2mM,0.998 ± 0.026
same,NP40-soluble protein abundance,PIP4K2A; concentration: 4mM,0.994 ± 0.048
same,NP40-soluble protein abundance,PIP4K2A; concentration: 6mM,1.07 ± 0.07
same,NP40-soluble protein abundance,PIP4K2A; concentration: 8mM,1.1 ± 0.048
same,NP40-soluble protein abundance,PIP4K2A; concentration: 10mM,1.12 ± 0.068
same,NP40-soluble protein abundance,PPM1F,1.028 ± 0.0057

# Pulled one by one from the entries so far:
structure (smiles),measurement,setting,value
Nc1ncnc2c1ncn2[C@@H]1O[C@H](COP(=O)(O)OP(=O)(O)NP(=O)(O)O)[C@@H](O)[C@H]1O [adenylyl imidodiphosphate],NP40-soluble protein abundance,PIP4K2A; concentration: 10mM,1.12 ± 0.068
same,NP40-soluble protein abundance,CAMLG; concentration: 6mM,0.994 ± 0.021
